Measurements published in paper PMC8233901 (International Journal of Molecular Sciences, 2021).
One purity is given for all peptides; the source may state it once.

Assay: general procedure: Fmoc solid-phase peptide synthesis; Fmoc-Rink-MBHA resin (0.56 mmol/g); Oxyma/DIC
Conditions: whole synthesis, 220 nm

Final HPLC purity, >99%:
Ac-KKLfKKILKYK(COC3H7)-NH2
Ac-KKLk(COC5H11)KKILKYL-NH2
C5H11CO-KKLfKKILKYL-NH2
Ac-KKLfKKK(COC5H11)LKYL-NH2
Ac-KKLfKKILKYK(COC11H23)-NH2
Ac-KKLk(COC11H23)KKILKYL-NH2
C3H7CO-KKLfKKILKYL-NH2
Ac-KK(COC3H7)LfKKILKYL-NH2
Ac-KKK(COC11H23)fKKILKYL-NH2
Ac-KKLfKKK(COC11H23)LKYL-NH2
Ac-KKLfKK(COC3H7)ILKYL-NH2
Ac-KKLfK(COC3H7)KILKYL-NH2
Ac-KKLfKKILKYK(COC5H11)-NH2
